From paper PMC6996959
Results are given in words; binding and its absence hold for the method and conditions named. Binding seen in cells or lysates may run through a third protein. Some entries that bind do so weakly or less than the wild type.

Target: T1, receptor-interacting protein kinase 1 (endogenous, mouse heart) (mouse (endogenous in mouse heart)), Q60855
T1 chain: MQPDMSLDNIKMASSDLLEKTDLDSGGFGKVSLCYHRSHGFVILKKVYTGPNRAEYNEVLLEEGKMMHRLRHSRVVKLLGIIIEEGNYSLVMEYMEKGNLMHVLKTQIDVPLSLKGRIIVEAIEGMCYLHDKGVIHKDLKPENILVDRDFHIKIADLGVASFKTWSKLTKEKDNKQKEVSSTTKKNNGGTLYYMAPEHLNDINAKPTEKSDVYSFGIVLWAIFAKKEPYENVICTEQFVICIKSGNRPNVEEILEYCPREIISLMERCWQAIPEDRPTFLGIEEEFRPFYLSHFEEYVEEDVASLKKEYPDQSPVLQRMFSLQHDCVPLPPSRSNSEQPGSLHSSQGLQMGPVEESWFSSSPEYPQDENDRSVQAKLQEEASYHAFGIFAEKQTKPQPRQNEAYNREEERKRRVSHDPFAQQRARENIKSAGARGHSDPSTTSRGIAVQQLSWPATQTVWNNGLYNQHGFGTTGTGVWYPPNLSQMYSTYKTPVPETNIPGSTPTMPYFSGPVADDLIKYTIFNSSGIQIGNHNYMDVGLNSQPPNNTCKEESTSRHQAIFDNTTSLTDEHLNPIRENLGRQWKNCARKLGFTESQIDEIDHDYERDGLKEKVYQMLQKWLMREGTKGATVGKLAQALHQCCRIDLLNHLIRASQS
Experiment: co-IP; co-immunoprecipitation from young and aged mouse hearts, sham, ischemia (30 min) or ischemia followed by 4 hr of reperfusion; also from aged hearts after Nec-1, Ad-sh-p62 or metformin and from RIP3 KO hearts; which protein was precipitated is not told in the text shown
Conditions: remark: other sources report otherwise

B1: receptor-interacting protein kinase 3 (endogenous, mouse heart), Q9QZL0 1-486 (protein)
chain: MSSVKLWPTGASAVPLVSREELKKLEFVGKGGFGVVFRAHHRTWNHDVAVKIVNSKKISWEVKAMVNLRNENVLLLLGVTEDLQWDFVSGQALVTRFMENGSLAGLLQPECPRPWPLLCRLLQEVVLGMCYLHSLNPPLLHRDLKPSNILLDPELHAKLADFGLSTFQGGSQSGSGSGSGSRDSGGTLAYLDPELLFDVNLKASKASDVYSFGILVWAVLAGREAELVDKTSLIRETVCDRQSRPPLTELPPGSPETPGLEKLKELMIHCWGSQSENRPSFQDCEPKTNEVYNLVKDKVDAAVSEVKHYLSQHRSSGRNLSAREPSQRGTEMDCPRETMVSKMLDRLHLEEPSGPVPGKCPERQAQDTSVGPATPARTSSDPVAGTPQIPHTLPFRGTTPGPVFTETPGPHPQRNQGDGRHGTPWYPWTPPNPMTGPPALVFNNCSEVQIGNYNSLVAPPRTTASSSAKYDQAQFGRGRGWQPFHK
  binding: binds
